Consider 26 molecules from the supplement of paper PMC4604168 (melanoma cell lines).

Some of the results follow. Single values are uncertain, as repeats are few or missing.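 Cells were imaged in 1,536-well plates, and nuclei stained with an antibody against cleaved PARP were counted against all DNA-stained nuclei to give the apoptosis fraction. Screening doses were chosen to leave most cells alive, and resting and induced cleaved-PARP levels differ strongly between cell lines.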

One assay deals with SkMel2. As to the kind of experiment: cleaved PARP positive nuclei fraction relative to DMSO control; melanoma cells; higher = more apoptosis. As to conditions: library dose: low library concentration; 72 h.
Consider `COc1cc([C@@H]2c3cc4c(cc3[C@@H](O[C@@H]3O[C@@H]5CO[C@@H](C)O[C@H]5[C@H](O)[C@H]3O)[C@H]3COC(=O)[C@H]23)OCO4)cc(OC)c1O` [etoposide] + COc1cc(N2CCC(N3CCN(C)CC3)CC2)ccc1Nc1ncc(Cl)c(Nc2ccccc2S(=O)(=O)C(C)C)n1 [NVP-TAE684] (first compound 0.02 µM, partner dose 0.08 µM), for which the “cleaved PARP positive nuclei fraction” value was determined as 103%.

For `Cc1cc(Nc2cc(N3CCN(C)CC3)nc(Sc3ccc(NC(=O)C4CC4)cc3)n2)n[nH]1` [Tozasertib] + COc1cc(N2CCC(N3CCN(C)CC3)CC2)ccc1Nc1ncc(Cl)c(Nc2ccccc2S(=O)(=O)C(C)C)n1 [NVP-TAE684] (first compound 0.006 µM, partner dose 0.08 µM), the “cleaved PARP positive nuclei fraction” value came out at 109%.

In the case of `CCCCCCCCCCCCCCCCCCOP(=O)([O-])OC1CC[N+](C)(C)CC1` [Perifosine] + O=S(=O)(c1ccccc1)N(CC(F)(F)F)c1ccc(C(O)(C(F)(F)F)C(F)(F)F)cc1 [T0901317] (first compound 0.4 µM, partner dose 1.4 µM), the “cleaved PARP positive nuclei fraction” value came out at 166%.

As for `CC[C@]1(O)C[C@H]2CN(CCc3c([nH]c4ccccc34)[C@@](C(=O)OC)(c3cc4c(cc3OC)N(C=O)[C@H]3[C@@](O)(C(=O)OC)[C@H](OC(C)=O)[C@]5(CC)C=CCN6CC[C@]43[C@@H]65)C2)C1` [vincristine] + Cn1cncc1[C@@](N)(c1ccc(Cl)cc1)c1ccc2c(c1)c(-c1cccc(Cl)c1)cc(=O)n2C [tipifarnib] (first compound 0.0001 µM, partner dose 0.01 µM), the “cleaved PARP positive nuclei fraction” value was 163%.

In the case of `Cc1cn(-c2cc(NC(=O)c3ccc(C)c(Nc4nccc(-c5cccnc5)n4)c3)cc(C(F)(F)F)c2)cn1` [nilotinib] + CN(NC(=O)CC(=O)NN(C)C(=S)c1ccccc1)C(=S)c1ccccc1 [STA4783] (first compound 0.2 µM, partner dose 0.006 µM), the “cleaved PARP positive nuclei fraction” value was found to be 58.6%.

With `O=C(/C=C/c1cccnc1)NCCCCC1CCN(C(=O)c2ccccc2)CC1` + O=C(Nc1ccccc1)c1cc([N+](=O)[O-])ccc1Cl [GW9662] (first compound 0.01 µM, partner dose 2 µM), the “cleaved PARP positive nuclei fraction” value stood at 1180%.

Regarding `CC[C@]1(O)C[C@H]2CN(CCc3c([nH]c4ccccc34)[C@@](C(=O)OC)(c3cc4c(cc3OC)N(C=O)[C@H]3[C@@](O)(C(=O)OC)[C@H](OC(C)=O)[C@]5(CC)C=CCN6CC[C@]43[C@@H]65)C2)C1` [vincristine] + O=c1cc(-c2cccc3c2Sc2ccccc2S3)oc(N2CCOCC2)c1 [KU55933] (first compound 0.0001 µM, partner dose 1 µM), the “cleaved PARP positive nuclei fraction” value is 149%.

Consider `N#CC[C@H](C1CCCC1)n1cc(-c2ncnc3[nH]ccc23)cn1` [ruxolitinib] + NCC(=O)Nc1ccc(-n2nc(C(F)(F)F)cc2-c2ccc3c(ccc4ccccc43)c2)cc1 [OSU03012] (first compound 1 µM, partner dose 1 µM), for which the “cleaved PARP positive nuclei fraction” value worked out at 353%.

As for `O=c1[nH]nc(Sc2ncc([N+](=O)[O-])s2)n1-c1ccc2c(c1)OCCO2` + CC(C)CCN1c2nc(Nc3cc(F)c(O)c(F)c3)ncc2N(C)C(=O)C1C [BID1870] (first compound 0.2 µM, partner dose 0.2 µM), the “cleaved PARP positive nuclei fraction” value came out at 39.2%.

As for `Cc1cn(-c2cc(NC(=O)c3ccc(C)c(Nc4nccc(-c5cccnc5)n4)c3)cc(C(F)(F)F)c2)cn1` [nilotinib] + O=C(Nc1cccc(Cl)c1)Nc1ncc(CCNc2ncnc3ccsc23)s1 [SNS314] (first compound 0.2 µM, partner dose 0.0008 µM), the “cleaved PARP positive nuclei fraction” value worked out at 128%.

As for `Cc1ccc(Nc2nccc(N(C)c3ccc4c(C)n(C)nc4c3)n2)cc1S(N)(=O)=O` [Pazopanib] + O=S(=O)(c1ccccc1)N(CC(F)(F)F)c1ccc(C(O)(C(F)(F)F)C(F)(F)F)cc1 [T0901317] (first compound 0.4 µM, partner dose 1.4 µM), the “cleaved PARP positive nuclei fraction” value is 102%.

On to `CCCCCCCCCCCCCCCCCCOP(=O)([O-])OC1CC[N+](C)(C)CC1` [Perifosine] + CC(C)(C)c1cnc(CSc2cnc(NC(=O)C3CCNCC3)s2)o1 [SNS-032] (first compound 0.4 µM, partner dose 0.01 µM), for which the “cleaved PARP positive nuclei fraction” value is 272%.

The next assay has as its system SkMel30. Described as above. As to conditions: library dose: low library concentration; 72 h.
As to `O=c1[nH]nc(Sc2ncc([N+](=O)[O-])s2)n1-c1ccc2c(c1)OCCO2` + COc1ccc(COc2ccc(Cc3cnc(N)nc3N)cc2OC)cc1 [GW2580] (first compound 0.2 µM, partner dose 1 µM), the “cleaved PARP positive nuclei fraction” value worked out at 170%.

Take `COc1cc([C@@H]2c3cc4c(cc3[C@@H](O[C@@H]3O[C@@H]5CO[C@@H](C)O[C@H]5[C@H](O)[C@H]3O)[C@H]3COC(=O)[C@H]23)OCO4)cc(OC)c1O` [etoposide] + O=S(=O)(c1ccccc1)N(CC(F)(F)F)c1ccc(C(O)(C(F)(F)F)C(F)(F)F)cc1 [T0901317] (first compound 0.02 µM, partner dose 1.4 µM): the “cleaved PARP positive nuclei fraction” value was 67%.

Turning to `O=c1[nH]nc(Sc2ncc([N+](=O)[O-])s2)n1-c1ccc2c(c1)OCCO2` + O=S(=O)(c1ccccc1)N(CC(F)(F)F)c1ccc(C(O)(C(F)(F)F)C(F)(F)F)cc1 [T0901317] (first compound 0.2 µM, partner dose 1.4 µM), the “cleaved PARP positive nuclei fraction” value is 37.3%.

Take `Cc1cc(Nc2cc(N3CCN(C)CC3)nc(Sc3ccc(NC(=O)C4CC4)cc3)n2)n[nH]1` [Tozasertib] + Cn1cncc1[C@@](N)(c1ccc(Cl)cc1)c1ccc2c(c1)c(-c1cccc(Cl)c1)cc(=O)n2C [tipifarnib] (first compound 0.006 µM, partner dose 0.01 µM): the “cleaved PARP positive nuclei fraction” value was found to be 50.3%.

On to `CC[C@]1(O)C[C@H]2CN(CCc3c([nH]c4ccccc34)[C@@](C(=O)OC)(c3cc4c(cc3OC)N(C=O)[C@H]3[C@@](O)(C(=O)OC)[C@H](OC(C)=O)[C@]5(CC)C=CCN6CC[C@]43[C@@H]65)C2)C1` [vincristine] + c1cc(-c2cnn3cc(-c4ccc(OCCN5CCCCC5)cc4)cnc23)ccn1 [Dorsomorphin] (first compound 0.0001 µM, partner dose 0.4 µM), for which the “cleaved PARP positive nuclei fraction” value worked out at 190%.

Regarding `Cc1ccc(Nc2nccc(N(C)c3ccc4c(C)n(C)nc4c3)n2)cc1S(N)(=O)=O` [Pazopanib] + CN(NC(=O)CC(=O)NN(C)C(=S)c1ccccc1)C(=S)c1ccccc1 [STA4783] (first compound 0.4 µM, partner dose 0.006 µM), the “cleaved PARP positive nuclei fraction” value came out at 71.8%.

As to `Cc1cn(-c2cc(NC(=O)c3ccc(C)c(Nc4nccc(-c5cccnc5)n4)c3)cc(C(F)(F)F)c2)cn1` [nilotinib] + COc1ccc(COc2ccc(Cc3cnc(N)nc3N)cc2OC)cc1 [GW2580] (first compound 0.2 µM, partner dose 1 µM), the “cleaved PARP positive nuclei fraction” value stood at 90.5%.

Take `COc1cc([C@@H]2c3cc4c(cc3[C@@H](O[C@@H]3O[C@@H]5CO[C@@H](C)O[C@H]5[C@H](O)[C@H]3O)[C@H]3COC(=O)[C@H]23)OCO4)cc(OC)c1O` [etoposide] + C[C@@H]1CCN(C(=O)CC#N)C[C@@H]1N(C)c1ncnc2[nH]ccc12 [CP690550] (first compound 0.02 µM, partner dose 1 µM): the “cleaved PARP positive nuclei fraction” value stood at 102%.

In the case of `Cc1cn(-c2cc(NC(=O)c3ccc(C)c(Nc4nccc(-c5cccnc5)n4)c3)cc(C(F)(F)F)c2)cn1` [nilotinib] + Cn1cc(/C=C2\C(=O)Nc3cccnc32)c2ccccc21 [GW441756] (first compound 0.2 µM, partner dose 0.4 µM), the “cleaved PARP positive nuclei fraction” value was 97.9%.

As to `Cc1cn(-c2cc(NC(=O)c3ccc(C)c(Nc4nccc(-c5cccnc5)n4)c3)cc(C(F)(F)F)c2)cn1` [nilotinib] + O=c1cc(-c2cccc3c2Sc2ccccc2S3)oc(N2CCOCC2)c1 [KU55933] (first compound 0.2 µM, partner dose 1 µM), the “cleaved PARP positive nuclei fraction” value came out at 24%.

For `CC[C@]1(O)C[C@H]2CN(CCc3c([nH]c4ccccc34)[C@@](C(=O)OC)(c3cc4c(cc3OC)N(C=O)[C@H]3[C@@](O)(C(=O)OC)[C@H](OC(C)=O)[C@]5(CC)C=CCN6CC[C@]43[C@@H]65)C2)C1` [vincristine] + NC(=O)Nc1cc(-c2cccc(F)c2)sc1C(=O)N[C@H]1CCCNC1 [AZD7762] (first compound 0.0001 µM, partner dose 0.02 µM), the “cleaved PARP positive nuclei fraction” value turned out to be 351%.

For `CCCCCCCCCCCCCCCCCCOP(=O)([O-])OC1CC[N+](C)(C)CC1` [Perifosine] + COc1ccc2c(c1)CCC1C2CCC2(C)C(NCCCCCCN3C(=O)C=CC3=O)CCC12 [U73122] (first compound 0.4 µM, partner dose 0.4 µM), the “cleaved PARP positive nuclei fraction” value came out at 20.5%.

Turning to `Cc1cn(-c2cc(NC(=O)c3ccc(C)c(Nc4nccc(-c5cccnc5)n4)c3)cc(C(F)(F)F)c2)cn1` [nilotinib] + Cc1ccc(NC(=O)c2cccc(N(C)C)c2)cc1NC(=O)c1ccc(O)cc1 [ZM336372] (first compound 0.2 µM, partner dose 2 µM), the “cleaved PARP positive nuclei fraction” value came out at 78.6%.

As for `CC[C@]1(O)C[C@H]2CN(CCc3c([nH]c4ccccc34)[C@@](C(=O)OC)(c3cc4c(cc3OC)N(C=O)[C@H]3[C@@](O)(C(=O)OC)[C@H](OC(C)=O)[C@]5(CC)C=CCN6CC[C@]43[C@@H]65)C2)C1` [vincristine] + O=C(Nc1cccc(Cl)c1)Nc1ncc(CCNc2ncnc3ccsc23)s1 [SNS314] (first compound 0.0001 µM, partner dose 0.0008 µM), the “cleaved PARP positive nuclei fraction” value amounted to 99.1%.
